# The shares of active, inactive and inconclusive entries below differ from those in the screen. For some of these results: Potencies of inconclusive entries are doubtful fits and often do not repeat. Active and inactive are the calls of the source. The calls were made as follows: active = hit-call score of the fitted dose curve at least 0.9, where 1 is the maximum; inconclusive = response in the unintended direction; inactive = score below 0.9.
# Amino acid sequences for entries named in this document (tags omitted). A change or cut given only in a name is not applied to a line headed by its entry.
# UniProt P04406: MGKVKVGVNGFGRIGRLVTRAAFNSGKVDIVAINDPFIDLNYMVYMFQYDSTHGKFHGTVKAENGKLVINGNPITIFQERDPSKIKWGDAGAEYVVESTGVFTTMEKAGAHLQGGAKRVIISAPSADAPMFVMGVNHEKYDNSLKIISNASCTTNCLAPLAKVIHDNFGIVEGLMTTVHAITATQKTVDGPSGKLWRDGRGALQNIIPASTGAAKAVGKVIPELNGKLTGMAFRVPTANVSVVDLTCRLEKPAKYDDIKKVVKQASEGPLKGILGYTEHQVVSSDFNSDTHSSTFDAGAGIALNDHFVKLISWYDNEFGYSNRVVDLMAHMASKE
# UniProt P14780: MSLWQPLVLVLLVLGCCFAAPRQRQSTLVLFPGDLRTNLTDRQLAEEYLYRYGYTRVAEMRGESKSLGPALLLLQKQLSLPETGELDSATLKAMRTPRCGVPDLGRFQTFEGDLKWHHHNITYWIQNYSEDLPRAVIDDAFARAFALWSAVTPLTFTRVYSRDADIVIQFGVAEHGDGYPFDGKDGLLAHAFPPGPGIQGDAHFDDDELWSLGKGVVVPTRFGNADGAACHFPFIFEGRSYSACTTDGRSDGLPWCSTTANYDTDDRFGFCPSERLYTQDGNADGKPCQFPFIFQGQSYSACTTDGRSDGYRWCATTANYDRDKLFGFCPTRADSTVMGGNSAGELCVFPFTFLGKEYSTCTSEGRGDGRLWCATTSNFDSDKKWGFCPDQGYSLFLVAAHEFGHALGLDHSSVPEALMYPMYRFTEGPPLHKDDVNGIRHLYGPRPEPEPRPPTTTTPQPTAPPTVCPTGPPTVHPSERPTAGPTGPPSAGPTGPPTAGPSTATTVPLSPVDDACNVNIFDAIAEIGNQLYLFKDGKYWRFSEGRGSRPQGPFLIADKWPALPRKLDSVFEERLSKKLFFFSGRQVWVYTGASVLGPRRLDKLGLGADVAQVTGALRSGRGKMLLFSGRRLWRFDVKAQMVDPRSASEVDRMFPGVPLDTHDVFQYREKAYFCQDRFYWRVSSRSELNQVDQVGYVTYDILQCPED
# UniProt P24530: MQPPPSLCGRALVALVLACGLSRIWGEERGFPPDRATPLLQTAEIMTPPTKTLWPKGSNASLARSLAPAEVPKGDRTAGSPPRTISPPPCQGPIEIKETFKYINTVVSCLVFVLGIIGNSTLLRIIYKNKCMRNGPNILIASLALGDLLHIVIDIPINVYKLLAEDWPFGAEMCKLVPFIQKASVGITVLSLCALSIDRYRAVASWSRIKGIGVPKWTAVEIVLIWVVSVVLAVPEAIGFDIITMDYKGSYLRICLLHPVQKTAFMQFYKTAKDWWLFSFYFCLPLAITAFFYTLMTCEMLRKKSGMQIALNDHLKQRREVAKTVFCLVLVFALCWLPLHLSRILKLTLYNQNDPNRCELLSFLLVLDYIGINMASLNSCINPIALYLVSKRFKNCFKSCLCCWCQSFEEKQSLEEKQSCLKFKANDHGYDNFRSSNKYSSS
# UniProt P08913, whole entry, looked up: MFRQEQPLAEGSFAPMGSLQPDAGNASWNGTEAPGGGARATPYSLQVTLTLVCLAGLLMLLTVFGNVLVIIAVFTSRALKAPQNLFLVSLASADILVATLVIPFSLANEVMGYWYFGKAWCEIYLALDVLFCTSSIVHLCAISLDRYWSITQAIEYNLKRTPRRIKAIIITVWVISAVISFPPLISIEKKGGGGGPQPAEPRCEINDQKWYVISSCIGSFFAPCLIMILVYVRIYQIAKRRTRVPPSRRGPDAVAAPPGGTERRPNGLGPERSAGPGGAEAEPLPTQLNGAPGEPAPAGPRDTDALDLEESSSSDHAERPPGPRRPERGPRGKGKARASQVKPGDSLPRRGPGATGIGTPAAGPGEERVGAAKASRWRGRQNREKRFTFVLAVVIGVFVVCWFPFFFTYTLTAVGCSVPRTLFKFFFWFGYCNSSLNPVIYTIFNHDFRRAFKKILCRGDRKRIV
# UniProt P10827: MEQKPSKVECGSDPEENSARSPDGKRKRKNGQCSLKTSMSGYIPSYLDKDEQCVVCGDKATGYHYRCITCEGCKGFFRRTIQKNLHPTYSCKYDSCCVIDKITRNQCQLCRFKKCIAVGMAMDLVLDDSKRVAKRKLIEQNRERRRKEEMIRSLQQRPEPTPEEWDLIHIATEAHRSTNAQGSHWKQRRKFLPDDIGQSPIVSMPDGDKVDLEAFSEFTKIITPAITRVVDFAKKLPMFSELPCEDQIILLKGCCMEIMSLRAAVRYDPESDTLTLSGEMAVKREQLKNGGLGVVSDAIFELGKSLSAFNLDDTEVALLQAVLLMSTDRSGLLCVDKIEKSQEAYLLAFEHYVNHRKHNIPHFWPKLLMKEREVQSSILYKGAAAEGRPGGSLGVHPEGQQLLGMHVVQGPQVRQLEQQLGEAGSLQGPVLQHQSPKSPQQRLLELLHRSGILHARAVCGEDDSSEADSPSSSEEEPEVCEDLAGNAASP
# Tests used:
# [1] = read-out: xenobiotic metabolism (CYP1A2), CYP1A2 (gene 1544); experiment: CLD_CYP1A2_6hr: CellzDirect (CLD) Gene Expression Assay for xenobiotic metabolism (CYP1A2) at 6 hours (AID 2283663);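 also: potency is for induction meaning a rise in mRNA above DMSO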
# Method in brief: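 Primary human hepatocytes from two donor preparations, dosed daily with multiple concentrations in 0.2% DMSO and harvested at 6 h. CYP1A2 mRNA induction measured by chemiluminescent qNPA, gain of signal fitted against DMSO; cytotoxicity flagged morphologically.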
# [2] = read-out: Glyceraldehyde-3-phosphate dehydrogenase (Homo sapiens) (UniProt P04406); experiment: CLD_GAPDH_6hr: CellzDirect (CLD) Gene Expression Assay for Baseline Control (Glyceraldehyde 3-phosphate dehydrogenase) at 6 hours (AID 2283681)
# Method in brief: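 Primary human hepatocytes from two donor preparations, dosed at multiple concentrations with 0.2% DMSO vehicle; GAPDH mRNA measured 6 h after dosing by chemiluminescent quantitative nuclease protection assay (qNPA) on denatured lysates. Serves as background control; cytotoxicity annotated by morphology.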
# [3] = read-out: ABC Transporter (ABCB1), ABCB1 (gene 5243); experiment: CLD_ABCB1_24hr: CellzDirect (CLD) Gene Expression Assay for ABC Transporter (ABCB1) at 24 hours (AID 2283684)
# Method in brief: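 Primary human hepatocytes, two donor preparations, dosed daily with fresh solutions; vehicle 0.2% DMSO; harvested at 24 h. ABCB1 mRNA measured by quantitative nuclease protection assay (chemiluminescence); morphology-based cytotoxicity annotated.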
# [4] = read-out: alkyl and aryl transferase (GSTA2), GSTA2 (gene 2939); experiment: CLD_GSTA2_24hr: CellzDirect (CLD) Gene Expression Assay for alkyl and aryl transferase (GSTA2) at 24 hours (AID 2283693)
# Method in brief: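 Primary human hepatocytes (two donor preparations) dosed daily for two days with chemicals at multiple concentrations (vehicle 0.2% DMSO); GSTA2 mRNA at 24 h measured by qNPA chemiluminescence, gain-of-signal versus DMSO.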
# [5] = read-out: ABC Transporter (ABCB1), ABCB1 (gene 5243); experiment: CLD_ABCB1_48hr: CellzDirect (CLD) Gene Expression Assay for ABC Transporter (ABCB1) at 48 hours (AID 2283695);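 also: potency for induction meaning increase of mRNA over DMSO vehicle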
# Method in brief: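 Primary human hepatocytes from two donor preparations dosed daily on two consecutive days with 0.2% DMSO vehicle. Harvest at 48 h. ABCB1 mRNA quantified by qNPA with chemiluminescence and fitted for gain of signal versus DMSO.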
# [6] = read-out: sulfotransferase (SULT2A), SULT2A1 (gene 6822); experiment: CLD_SULT2A_48hr: CellzDirect (CLD) Gene Expression Assay for sulfotransferase (SULT2A) at 48 hours (AID 2283710);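 also: hits raise SULT2A1 transcript above the 0.2% DMSO vehicle baseline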
# Method in brief: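 Primary human hepatocytes (two donor preparations) dosed daily for two days with chemicals at multiple concentrations, vehicle 0.2% DMSO; SULT2A1 mRNA induction at 48 h by quantitative nuclease protection assay, chemiluminescent read-out, fitted for gain of signal versus DMSO.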
# [7] = target: rat Glutamate, MK-801 Agonist Site (GluNMDA_MK801), Grin1 (gene 24408) (UniProt P35439); experiment: NVS_LGIC_rGluNMDA_MK801_Agonist: NovaScreen (NVS) Ligand-Gated Ion Channel Assay for rat Glutamate, MK-801 Agonist Site (GluNMDA_MK801) (AID 2283340)
# Method in brief: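 Radioligand binding at MK-801 site in rat forebrain membranes, 1.5 h incubation, filter-based scintillation counting. Initially 25 uM in duplicate; actives then run in concentration-response up to 50 uM, fitted for gain of signal versus DMSO.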
# [8] = target: human Matrix Metalloproteinase-9 (MMP9), MMP9 (gene 4318) (UniProt P14780); experiment: NVS_ENZ_hMMP9: NovaScreen (NVS) Enzymatic Assay for human Matrix Metalloproteinase-9 (MMP9) (AID 2283190);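 also: cell-free recombinant MMP9 protease activity read by fluorescent substrate signal; active means inhibition seen as loss of fluorescence signal versus DMSO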
# Method in brief: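 Extracted enzyme, fluorescent substrate, 1 h post-dose read. Single conc 25 uM in duplicate, then concentration series for actives. Activity = signal loss relative to DMSO negative control.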
# [9] = target: human Endothelin Receptor Type B (ETB), EDNRB (gene 1910) (UniProt P24530); experiment: NVS_GPCR_hETB: NovaScreen (NVS) G Protein-Coupled Receptor Assay for human Endothelin Receptor Type B (ETB) (AID 2283267)
# Method in brief: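 Human astrocytoma cell membranes; radioligand competitive binding read by filter scintillation counting 4 hours after dosing. Single-concentration duplicate screen at 25 uM, then singleton concentration-response up to 50 uM; loss of signal versus DMSO.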
# [10] = target: human Adrenergic, Alpha 2A Receptor (Adra2A), ADRA2A (gene 150) (UniProt P08913); experiment: NVS_GPCR_hAdra2A: NovaScreen (NVS) G Protein-Coupled Receptor Assay for human Adrenergic, Alpha 2A Receptor (Adra2A) (AID 2283257)
# Method in brief: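 Radioligand filter-binding was run on HT29-derived membranes, cell-free, read by scintillation counting 1 h after dosing. Primary screening was in duplicate at 25 uM, with concentration series in follow-up. Loss of signal versus DMSO indicates displacement.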
# [11] = target: human Thyroid Receptor Alpha (TRa), THRA (gene 7067) (UniProt P10827); experiment: NVS_NR_hTRa_Antagonist: NovaScreen (NVS) Nuclear Receptor Binding Assay for human Thyroid Receptor Alpha Antagonism (TRa) (AID 2283362);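 also: activity is loss of signal relative to DMSO baseline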
# Method in brief: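 Cell-free AlphaLISA chemiluminescent binding read 1 h after dosing, antagonist mode; signal loss versus DMSO baseline. Primary screen in duplicate at 25 uM, then concentration series for actives.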
# [12] = ArunA_NOG_NucleusCount: ArunA Biomedical's Neurite Outgrowth (NOG) Assay for Nucleus Count (AID 2283756)
# Method in brief: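 Human H9-derived differentiated neurons were exposed for 48 h right after seeding. Hoechst-stained nuclei gated by size and intensity were counted by automated high-content imaging as viable neurons. Loss of signal vs DMSO.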
# [13] = VALA_TUBIPS_Agonist_TubuleLength: VALA Sciences human iPS-derived Endothelial Tubule Formation (TUBIPS) Agonism Assay (AID 2284311)
# Method in brief: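 Human iPS-derived endothelial cells were exposed to compound for 72 h. Tubule formation was imaged by high-content fluorescence and scored as gain of signal relative to DMSO vehicle (agonist mode).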
# [14] = VALA_TUBIPS_Antagonist_TubuleLength: VALA Sciences human iPS-derived Endothelial Tubule Formation (TUBIPS) Antagonist Assay (AID 2284313)
# Method in brief: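 Cells grown 3 days with 10 ng/ml VEGF, then exposed to compounds in VEGF medium for another 3 days. After fixation, nuclear stain and CD31 immunofluorescence imaging gave mean total tubule length against 0.1% DMSO; suramin (100 uM) inhibition control.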
# [15] = CCTE_Shafer_MEA_dev_bursting_electrodes_number: CCTE's Neural Network Formation Assay for Number of Bursting Electrodes, Shafer Lab (AID 2284043);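 also: potency is for loss of bursting electrodes relative to DMSO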
# Method in brief: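 Read-out is the per-well number of electrodes bursting at least once every 2 minutes, recorded on days 5, 7, 9 and 12 and collapsed by trapezoidal area under the curve. Cultures were primary rat cortical neurons on MEA plates, treated continuously from plating.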
# [16] = CCTE_Shafer_MEA_dev_LDH: CCTE's Lactate Dehydrogenase Assay for Cytotoxicity in the Neural Network Formation Assay, Shafer Lab (AID 2284068);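 also: exposure for twelve days from plating with re-dosing on DIV 5 and 9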
# Method in brief: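 Rat cortical primary neurons, MEA culture; dosing day 0–12, full medium plus compound exchange DIV 5, 9. Read-out: LDH enzyme activity, spectrophotometric. DMSO = negative control/baseline; signal loss → cytotoxicity.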
smiles,measurement,setting,value
COC(=O)c1cccc(C)c1S(=O)(=O)NC(=O)Nc1nc(OCC(F)(F)F)nc(N(C)C)n1,AC50,[1],active: 5.98 µM
same,AC50,[2],inconclusive: 20 µM
same,outcome,[3],inactive
same,outcome,[4],inactive
same,AC50,[5],inconclusive: 2.75 µM
same,AC50,[6],inconclusive: 0.0284 nM
CCCCCCCC=O,AC50,[7],inconclusive: 0.0656 µM
CC[C@H](C)C(=O)O[C@H]1C[C@H](O)C=C2C=C[C@H](C)[C@H](CC[C@@H](O)C[C@@H](O)CC(=O)O)[C@H]21,outcome,[8],inactive
same,AC50,[9],inconclusive: 0.216 µM
CC1(C)C(=O)N(Cl)C(=O)N1Cl,AC50,[10],inconclusive: 25 µM
same,AC50,[11],inconclusive: 38.9 µM
OCCNCCO,AC50,[12],active: 21.3 µM
same,AC50,[13],inconclusive: 0.989 µM
same,AC50,[14],inconclusive: 0.0564 µM
OCCC(F)(F)C(F)(F)C(F)(F)C(F)(F)F,AC50,[15],inconclusive: 15 µM
same,AC50,[16],inconclusive: 15 µM

# Taken from above for reference:
smiles,measurement,setting,value
OCCNCCO,AC50,[13],inconclusive: 0.989 µM
same,AC50,[14],inconclusive: 0.0564 µM

# Reference: PubChem BioAssay (EPA / NIEHS)
